The list shows a part of the results.
Target: OsWRKY34 (Oryza sativa, UniProt Q0JBA9 1-250)
Assay: protein-binding microarray (RPBM); PBS, 2% BSA, 51.3 ng/ul salmon testes DNA, 50 uM zinc acetate, 200 nM TF, 25 C, 1 h; high values mean tight binding
Conditions: protein: recombinant; tags: N-terminal polyhistidine and DsRed monomer fusion (pET32a); label: CyDye5-dUTP incorporated in the synthesized complementary strand; 3' TTTTT single-stranded linker to array surface; dsDNA, one strand shown
In short: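 For the binding signal, per-feature fluorescence intensity was read in arbitrary units on an Axon 4000B scanner. Before scanning, a 2% BSA-blocked custom Agilent array made double-stranded with Cy5-dUTP was washed after 1 h at 25 °C with 200 nM protein and 50 µM zinc acetate. The proteins were Ni–NTA-purified transcription factors with N-terminal polyhistidine and DsRed fusions, expressed in E. coli BL21-CodonPlus.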

Amino acid sequences for entries named in this document (tags omitted).
UniProt Q0JBA9, entry or part of it: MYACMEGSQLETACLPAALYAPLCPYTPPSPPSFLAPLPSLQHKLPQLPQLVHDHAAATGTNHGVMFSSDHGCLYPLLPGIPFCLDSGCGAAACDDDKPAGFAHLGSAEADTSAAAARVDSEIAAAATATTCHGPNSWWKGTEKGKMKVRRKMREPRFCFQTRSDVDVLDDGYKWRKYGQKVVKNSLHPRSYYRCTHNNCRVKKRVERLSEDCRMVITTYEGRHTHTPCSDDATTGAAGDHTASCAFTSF

Q: How did the binding signal turn out when “AAACCTAGTAGCTCATATGCTCATCTCTGCCTCTAGATTTCGGAGTCACCTAGTGCAG” was run?
A: 10700 fluorescence intensity (a.u.)

Q: With “ACTTGTGGGGTTGTTTTGGTCACAGTATTACTTAAATAAACGGAGTCACCTAGTGCAG” as the sequence, how does the binding signal read?
A: 8670 fluorescence intensity (a.u.)

Q: For “ATATAAACTTGTTCATTCTTGTAGCCCGTCCTTGTTCTCCCGGAGTCACCTAGTGCAG”, which binding signal is on record?
A: 9570 fluorescence intensity (a.u.)

Q: How did the binding signal turn out when “AGGTTTTTTTTCATCAAAGTGAACCGGCCCTATATTATCCCGGAGTCACCTAGTGCAG” was run?
A: 8520 fluorescence intensity (a.u.)

Q: “CTCTCCACTACTTCGTCTCCACCACCAGAGCATCTAATTTCGGAGTCACCTAGTGCAG” was tested. Which binding signal did it give?
A: 11300 fluorescence intensity (a.u.)

Q: “GATGAAGCTATTAATAGCTTTTAGCTTGTTGTGTGCTGTTCGGAGTCACCTAGTGCAG” was tested. Which binding signal did it give?
A: 8580 fluorescence intensity (a.u.)

Q: “CCCCTTTGTGCTCACATGTGCATTGCATATATGCAGCCTTCGGAGTCACCTAGTGCAG” was tested. Which binding signal did it give?
A: 8600 fluorescence intensity (a.u.)

Q: For “TAATTTTTGACCACTCGTCTTATTTAAATTTTTTTACAAACGGAGTCACCTAGTGCAG”, which binding signal is on record?
A: 8080 fluorescence intensity (a.u.)

Q: “CCACATGCACCGGCTCTGACAAATTGCAAAAGCATCCTCTCGGAGTCACCTAGTGCAG” was tested. Which binding signal did it give?
A: 10100 fluorescence intensity (a.u.)

Q: How did the binding signal turn out when “CGGCGGAATTCATTTTCTTGTGGTCCTTTTGCTGATCTTCCGGAGTCACCTAGTGCAG” was run?
A: 8540 fluorescence intensity (a.u.)

Q: With “GAGCAGAATTAACCTTTTTCTTTTTGTTTTTGTTTGCCTTCGGAGTCACCTAGTGCAG” as the sequence, how does the binding signal read?
A: 9620 fluorescence intensity (a.u.)

Q: With “TAAATGTGCTTTAGGTATTCCATGTCAAATCCCGTGTTTTCGGAGTCACCTAGTGCAG” as the sequence, how does the binding signal read?
A: 8390 fluorescence intensity (a.u.)

Q: “CTTTCTTTAGTTAACTCATGCTCTTTATTTTGGGTTCTGTCGGAGTCACCTAGTGCAG” was tested. Which binding signal did it give?
A: 9620 fluorescence intensity (a.u.)

Q: Which binding signal does the source give for “TTCTGCTGATTACTCTTTTTGTACTCTTTAGTTTGTTACTCGGAGTCACCTAGTGCAG” here?
A: 10500 fluorescence intensity (a.u.)

Q: How did the binding signal turn out when “GTAGATGTAGTAGCTAGCTTTTGTTAATTTCAACGTTCCACGGAGTCACCTAGTGCAG” was run?
A: 8380 fluorescence intensity (a.u.)

Q: For “ATTGCTTCTGAAAACCTGCTCCTCTTTTGCTGTGGACAATCGGAGTCACCTAGTGCAG”, which binding signal is on record?
A: 8240 fluorescence intensity (a.u.)

Q: For “GTGTTGTATGTGCCTAGCTAGCTATGTATGCCGTACGTACCGGAGTCACCTAGTGCAG”, which binding signal is on record?
A: 10300 fluorescence intensity (a.u.)

Q: Which binding signal does the source give for “GACCGGCCATCCGCACTACCCACCGCTGTCGCTGGAACTTCGGAGTCACCTAGTGCAG” here?
A: 10700 fluorescence intensity (a.u.)

Q: Which binding signal does the source give for “CTCCTTAATTTACTTATTTGTCTTTAATTGGTTCTCGCACCGGAGTCACCTAGTGCAG” here?
A: 9130 fluorescence intensity (a.u.)

Q: With “ATTAATTCACTACCTACTCTCCTTGCACCTAACACTCTTACGGAGTCACCTAGTGCAG” as the sequence, how does the binding signal read?
A: 8860 fluorescence intensity (a.u.)

Q: How did the binding signal turn out when “TGCTCCTTCTCTAATCTCTCCATCACCACCATACAATCTCCGGAGTCACCTAGTGCAG” was run?
A: 8440 fluorescence intensity (a.u.)

Q: For “CTAATGCGCGCCGCCCCGATCTCCCGATCCGGTCCGCGCGCGGAGTCACCTAGTGCAG”, which binding signal is on record?
A: 8190 fluorescence intensity (a.u.)

Q: How did the binding signal turn out when “CCTCTCTCTCTCTCTCTCTCTCTCTCACACACACACACACCGGAGTCACCTAGTGCAG” was run?
A: 9540 fluorescence intensity (a.u.)
